Laboratory results: PMC10363799
These are yes or no findings as the source states them, for the method shown. Binding seen in cells or lysates may run through a third protein. These calls come from enrichment with a bait or labelling near it, and not all partners need be listed.

Protein sequences, listed by entry. Tags and fused reporters are not part of them.
UniProt P45974: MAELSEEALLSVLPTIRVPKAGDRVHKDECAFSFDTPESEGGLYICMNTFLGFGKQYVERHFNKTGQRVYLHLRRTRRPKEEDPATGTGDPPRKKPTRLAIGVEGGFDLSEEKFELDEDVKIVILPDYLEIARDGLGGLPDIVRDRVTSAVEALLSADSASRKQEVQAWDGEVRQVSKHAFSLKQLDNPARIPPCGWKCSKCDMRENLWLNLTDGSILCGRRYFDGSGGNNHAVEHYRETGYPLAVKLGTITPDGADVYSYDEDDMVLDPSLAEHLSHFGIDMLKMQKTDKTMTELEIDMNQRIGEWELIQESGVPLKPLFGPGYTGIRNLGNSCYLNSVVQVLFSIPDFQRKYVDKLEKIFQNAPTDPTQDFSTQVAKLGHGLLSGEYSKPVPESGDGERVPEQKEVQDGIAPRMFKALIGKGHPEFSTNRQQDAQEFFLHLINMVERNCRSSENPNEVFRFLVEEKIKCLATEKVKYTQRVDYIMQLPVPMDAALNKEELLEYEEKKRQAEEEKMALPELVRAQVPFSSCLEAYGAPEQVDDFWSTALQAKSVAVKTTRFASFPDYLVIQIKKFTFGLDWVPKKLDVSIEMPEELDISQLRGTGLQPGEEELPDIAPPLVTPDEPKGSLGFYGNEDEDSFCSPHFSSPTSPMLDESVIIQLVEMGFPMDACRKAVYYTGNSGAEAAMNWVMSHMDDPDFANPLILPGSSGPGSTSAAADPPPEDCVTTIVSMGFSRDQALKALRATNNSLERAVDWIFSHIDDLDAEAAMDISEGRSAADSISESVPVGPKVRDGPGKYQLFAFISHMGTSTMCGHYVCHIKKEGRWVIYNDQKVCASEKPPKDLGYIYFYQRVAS

Target: T1, Lymphoid-specific helicase (LSH), stably expressed in 293T cells (UniProt Q9NRZ9)
T1 sequence: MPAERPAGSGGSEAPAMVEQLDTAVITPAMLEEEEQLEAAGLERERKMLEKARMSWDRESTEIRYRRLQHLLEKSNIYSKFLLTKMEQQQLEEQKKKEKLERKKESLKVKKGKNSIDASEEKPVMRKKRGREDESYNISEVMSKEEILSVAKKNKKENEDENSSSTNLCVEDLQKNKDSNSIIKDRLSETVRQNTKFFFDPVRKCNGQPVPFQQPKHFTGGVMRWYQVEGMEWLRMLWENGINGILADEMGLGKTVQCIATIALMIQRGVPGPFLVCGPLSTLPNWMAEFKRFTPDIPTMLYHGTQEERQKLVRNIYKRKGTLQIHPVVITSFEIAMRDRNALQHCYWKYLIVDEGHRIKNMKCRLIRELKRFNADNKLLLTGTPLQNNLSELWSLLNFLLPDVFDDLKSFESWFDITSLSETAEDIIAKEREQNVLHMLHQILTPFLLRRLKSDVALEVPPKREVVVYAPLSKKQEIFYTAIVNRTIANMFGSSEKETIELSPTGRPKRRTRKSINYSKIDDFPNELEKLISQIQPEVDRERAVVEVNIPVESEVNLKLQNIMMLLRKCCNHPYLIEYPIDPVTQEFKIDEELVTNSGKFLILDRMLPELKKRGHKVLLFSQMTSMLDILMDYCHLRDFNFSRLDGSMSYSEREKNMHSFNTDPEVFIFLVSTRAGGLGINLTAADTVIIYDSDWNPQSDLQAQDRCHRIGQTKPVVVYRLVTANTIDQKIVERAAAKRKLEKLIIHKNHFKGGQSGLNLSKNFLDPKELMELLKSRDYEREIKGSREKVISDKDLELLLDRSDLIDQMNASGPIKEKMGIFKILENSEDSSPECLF
Assay: affinity purification with mass spectrometry; LSH-interacting proteins identified by mass spectrometry in 293T cells stably expressing LSH

- binding: binds
Substance: Ubiquitin-specific protease 5 (USP5), endogenous in 293T cells (from UniProt P45974 1-858) (enzyme)
